Assay: general procedure: Fmoc solid-phase peptide synthesis; Fmoc-Rink-Amide-MBHA resin; HATU/HOAt/DIEA
Settings: whole synthesis

Substance: DOTA-Pip-Nle-cyclo[Asp-(N-Me-His)-D-Phe-(N-Me)-Arg-(N-Me-Trp)-(N-Me-Lys)]—NH2
- final purity (method not given): >99%

Reference: patent US11395857B2 (PROVINCIAL HEALTH SERVICES AUTHORITY, priority 2018, dated 2022)
